The other results are listed elsewhere or left out.

Compound in this experiment: CC1Cc2ccccc2N1C(=O)C1CCCN(C1)C(=O)CCl (mixture of isomers) [TRIM25 ligand 11 (diastereomer mixture)]
The experiment in a line: probe-labelled cysteine peptide fold change vs DMSO (competition) (log2 fold change); higher = less target engagement (more negative = stronger competition). To be noted: THP-1, incubation time: 4 h.
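Also: competitive chemoproteomic profiling in live THP-1 cells with an iodoacetamide desthiobiotin (IA-DTB) probe, comparing probe-labelled peptide intensities in compound-treated cells against DMSO-treated controls.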

“SMARCC1_Q92922_108_CFMDFK (UniProt Q92922)”: the “probe-labelled cysteine peptide fold change” value runs as follows: (10 µM) -0.0752; (50 µM) -0.064.
For “SLC4A1AP_Q9BWU0_125_EGPTALQDSNSGEPDIPPPQPDCGDFR (UniProt Q9BWU0)” the same measures were -0.107 and -0.294.
For “SLC27A4_Q6P1M0_560_AGMAAVASPTGNCDLER (UniProt Q6P1M0)” the same measures were 0.142 and -0.114.
As for “SMARCA2_P51531_1016_ICNHPYMFQHIEESFAEHLGYSNGVINGAELYR (UniProt P51531)”, the “probe-labelled cysteine peptide fold change” value reads like this: (10 µM) -0.0517; (50 µM) -0.116.
In the same order, the values of “SLC30A1_Q9Y6M5_447_QCCGTLPQAPSGK (UniProt Q9Y6M5)” are -0.168 and -0.232.
For “SMPD4_Q9NXE4_766_FAGQMAALCSR (UniProt Q9NXE4)” the same measures were -0.231 and -0.0921.
In the same order, the values of “SLFN11_Q7Z7L1_51_AACALLNSGGGVIR (UniProt Q7Z7L1)” are 0.0734 and 0.0456.
As for “SMAD5_Q99717_110_WPDLQSHHELKPLDICEFPFGSK (UniProt Q99717)”, the “probe-labelled cysteine peptide fold change” value by setting is: (10 µM) -0.0706; (50 µM) -0.0467.
For “SMARCC2_Q8TAQ2_91_AGGSLCHILAAAYK (UniProt Q8TAQ2)” the same measures were 0.0152 and -0.0673.
In the same order, the values of “SMS_P52788_206_DVLILGGGDGGILCEIVK (UniProt P52788)” are -0.115 and -0.0163.
On to “SMC4_Q9NTJ3_916_QLDECASAITK (UniProt Q9NTJ3)”, for which the “probe-labelled cysteine peptide fold change” value is, setting by setting: (10 µM) -0.00623; (50 µM) 0.133.
For “SNRNP200_O75643_1702+1706_CVIMCQGSK (UniProt O75643)” the same measures were -0.0143 and -0.197.
For “SLC27A2_O14975_414_DEPVRDENGYCVR (UniProt O14975)” the same measures were 0.0377 and -0.0613.
“SND1_Q7KZF4_826+837_DIQNTQCLLNVEHLSAGCPHVTLQFADSK (UniProt Q7KZF4)”: the “probe-labelled cysteine peptide fold change” value (10 µM) stood at 0.107 and the “probe-labelled cysteine peptide fold change” value (50 µM) is -0.183.
In the same order, the values of “SMARCC1_Q92922_761_VDPTYGLESSCIAGTGPDEPEKLEGAEEEK (UniProt Q92922)” are -0.397 and -0.234.
Take “SMC4_Q9NTJ3_323_KNHVCQYYIYELQK (UniProt Q9NTJ3)”: the “probe-labelled cysteine peptide fold change” value (10 µM) was -0.227 and the “probe-labelled cysteine peptide fold change” value (50 µM) is -0.334.
For the target “SMC6_Q96SB8_385_DDEQLCK (UniProt Q96SB8)”, the “probe-labelled cysteine peptide fold change” value is -0.0608 (10 µM) and -0.0749 (50 µM).
For “SMC1A_Q14683_933_HNLLQACK (UniProt Q14683)” the same measures were -0.197 and -0.257.
In the same order, the values of “SLC7A6OS_Q96CW6_166_TSDPDVILCNSVELIR (UniProt Q96CW6)” are -0.174 and -0.354.
In the same order, the values of “SMC2_O95347_326_NLACEESK (UniProt O95347)” are -0.0206 and -0.0135.
As for “SMARCA5_O60264_457_CCNHPYLFDGAEPGPPYTTDMHLVTNSGK (UniProt O60264)”, the “probe-labelled cysteine peptide fold change” value by setting is: (10 µM) 0.0517; (50 µM) 0.132.
Consider “SNRNP200_O75643_302_TASDDRECENQLVLLLGFNTFDFIK (UniProt O75643)”, for which the “probe-labelled cysteine peptide fold change” value runs as follows: (10 µM) -0.0898; (50 µM) 0.0958.
For “SND1_Q7KZF4_152_LSECEEQAK (UniProt Q7KZF4)” the same measures were -0.0482 and -0.131.
For “SMARCB1_Q12824_167_TFPLCFDDHDPAVIHENASQPEVLVPIRLDMEIDGQKLR (UniProt Q12824)” the same measures were -0.0714 and 0.0299.
For “SMARCA2_P51531_1296_LMEEDELPSWIIKDDAEVERLTCEEEEEK (UniProt P51531)” the same measures were -0.248 and -0.36.
On to “SMC1A_Q14683_781_MNQVEDEVFEEFCR (UniProt Q14683)”, for which the “probe-labelled cysteine peptide fold change” value (10 µM) was 0.0344 and the “probe-labelled cysteine peptide fold change” value (50 µM) turned out to be 0.0302.
“SNRNP48_Q6IEG0_26_LQEELNEFVESGCR (UniProt Q6IEG0)”: the “probe-labelled cysteine peptide fold change” value (10 µM) was found to be 0.00655 and the “probe-labelled cysteine peptide fold change” value (50 µM) is -0.0667.
For “SMARCB1_Q12824_147_NSQWVPTLPNSSHHLDAVPCSTTINR (UniProt Q12824)” the same measures were -0.0549 and -0.612.
In the same order, the values of “SMG1_Q96Q15_2396_LSCEQVLHIMR (UniProt Q96Q15)” are 0.169 and 0.331.
As for “SMYD5_Q6GMV2_136_LAATEQYHQVLCPGPSQDDPLHPLNK (UniProt Q6GMV2)”, the “probe-labelled cysteine peptide fold change” value reads like this: (10 µM) 0.0782; (50 µM) 0.106.
In the same order, the values of “SLC44A1_Q8WWI5_98_YVFFLDPCNLDLINRK (UniProt Q8WWI5)” are 0.122 and -0.0836.
In the same order, the values of “SMAD3_P84022_332_YGWHPATVCK (UniProt P84022)” are -0.0236 and 0.0575.
For “SMG5_Q9UPR3_39_LDLILCNK (UniProt Q9UPR3)”, the “probe-labelled cysteine peptide fold change” value is 0.355 (10 µM) and 0.485 (50 µM).
In the same order, the values of “SMC1A_Q14683_1073_FDRFNACFESVATNIDEIYK (UniProt Q14683)” are -0.0806 and -0.00889.
In the same order, the values of “SNRNP40_Q96DI7_168_GPQLVCTGSDDGTVK (UniProt Q96DI7)” are -0.0357 and -0.0545.
“SMARCC2_Q8TAQ2_635_TQDECILHFLR (UniProt Q8TAQ2)”: the “probe-labelled cysteine peptide fold change” value came to 0.00815 (10 µM) and 0.0104 (50 µM).
For “SMARCC1_Q92922_462_SVDLGEDNVTEQTNHIIIPSYASWFDYNCIHVIER (UniProt Q92922)” the same measures were -0.234 and -0.397.
In the same order, the values of “SNRNP40_Q96DI7_99_LILLWNVYGDCDNYATLK (UniProt Q96DI7)” are 0.0363 and 0.117.
In the same order, the values of “SMARCA5_O60264_976_ENVYDELRQCIR (UniProt O60264)” are -0.194 and 0.0608.
As to “SMARCA2_P51531_1175_LCTVNSVEEK (UniProt P51531)”, the “probe-labelled cysteine peptide fold change” value turned out to be 0.0321 (10 µM) and 0.17 (50 µM).

Source of the values: the supplement of paper PMC12067093, “Discovery and optimisation of a covalent ligand for TRIM25 and its application to targeted protein ubiquitination” (Chemical Science, 2025).
